Measurements from paper PMC3397443, “Sinularones A–I, New Cyclopentenone and Butenolide Derivatives from a Marine Soft Coral Sinularia sp. and Their Antifouling Activity” (Marine Drugs, 2012).

Test system: larvae of the barnacle Balanus amphitrite
Test: Larval settlement bioassay (antifouling activity)
Type: in vivo
Details: ratio of larval LC50 to settlement EC50
Description: All compounds were tested for their cytotoxicity against a panel of tumor cell lines including human ovarian carcinoma A2780, human lung adenocarcinoma A549, human gastric carcinoma BGC823, human hepatoma Bel7402, and human colonic carcinoma HCT-8. […] In order to detect whether these compounds play a role for ecological functions, the test for antifouling activity against the larvae of the barnacle Balanus amphitrite was performed. […] A primary discussion of structure-activity relationship implied that α,β-unsaturated 2,3-dimethyl-γ-lactone is a functional unit for anti-barnacle.
Adults of the barnacle Balanus amphitrite Darwin were exposed to air for more than 6 h, and then were placed in a container filled with fresh 0.22 µm filtered sea water (FSW) to release nauplii. The collected nauplii were reared to cyprid stage according to the method described by Thiyagarajan et al.. When kept at 26–28 °C and fed with Chaetoceros gracilis, larvae developed to cyprids within four days. Fresh cyprids were used in the tests.

Row | Compound | Balanus amphitrite Larvae LC50/EC50
1 | CCO[C@@]1(CCC(=O)OC)OC(=O)C(C)=C1C [Compound 8, Sinularone H] | >2.34
2 | CCCCC[C@]1(O)OC(=O)C(C)=C1C [Compound 10, (S)-4-hydroxy-2,3-dimethyl-4-pentyl-γ-lactone] | >13.02
3 | CCOC(=O)CCCCCCCCCCCC[C@]1(O)OC(=O)C(C)=C1C [Compound 9, Sinularone I] | >3.97
4 | CCOC(=O)CC[C@]1(O)OC(=O)C(C)=C1C [Compound 7, Sinularone G] | >2.69
5 | CC(=O)CC/C=C(/C)C[C@@H]1CC(C)(C)CC1=O [Compound 1, Sinularone A] | >3.61
6 | CCCCC[C@@]1(O)C(C)=C(C)C(=O)[C@H]1CC(=O)OCC [Compound 2, Sinularone B] | >2.13
